Test results from patent publication US20030054520A1, “Recombinant enzymes having improved NAD (H) affinity” (DEGUSSA AG, priority 2000, published 2003).

Test system: G38D mutein of recADH
Experiment: Stereoselectivity: enzymatic reduction with coenzyme regeneration, ee of the product by chiral GC
Assay type: biochemical
Conditions: 10 mM keto substrate, NADH regenerated with formate/formate dehydrogenase; ee(R)

Compound	ee value of the product
CCCCCC(C)=O [2-Heptanone]	>99%
CCCCC(C)=O [2-Hexanone]	>99%
CCOC(=O)C(=O)CC [2-Oxobutyric acid ethyl ester]	>99%
CC(=O)c1ccc(Cl)cc1 [4-chloroacetophenone]	>99%
CC(=O)c1ccccc1 [Acetophenone]	>99%
